From PubChem BioAssay AID624291 (National Center for Advancing Translational Sciences (NCATS), 2012)
The whole screen tested about 350,000 compounds, of which about 220 (0.063%) were called active. The shares of active, inactive and inconclusive entries below differ from those in the screen. Calls come from the whole dose curve; as a rule, active = well fitted activation curve with a large enough effect; inconclusive = small, poorly fitted or top-dose-only effect; inactive = no such curve, though single readings can be large or run the other way. A potency beside an inconclusive call is a rough fit, not a confirmed value.

Assay: qHTS for Activators of Integrin-Mediated Alleviation for Muscular Dystrophy; note: nearly all actives have a fitted effect of over 60% in size;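 for activation: 100% = response of the positive control SU9516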
Details: alpha7betagal myoblasts, beta-gal FDG fluorescence, 48 h; activation: at 38.3 µM (top of the series)
Description: Integrins are a diverse family of transmembrane cell surface receptors that mediate interactions between cells and the extracellular matrix. These heterodimeric proteins are composed of alpha and beta subunits and the a7b1 interacts with laminin in the extracellular matrix and actin of the cell cytoskeleton. Both chains contribute to ligand binding, but the alpha chain mediates the specificity of the interaction. The alpha7beta1 integrin is a major laminin receptor in skeletal, cardiac and vascular smooth muscle. Mutations in the alpha7 integrin gene are responsible for muscular dystrophy in both humans and mice. The alpha7beta1 integrin is also a major modifier of muscle disease progression in various muscle diseases including Duchenne muscular dystrophy, Fukuyama muscular dystrophy and merosin deficient congenital muscular dystrophy type 1A. […] Transcriptional regulation of the alpha7 integrin gene is poorly understood and probably involves multiple transcription factors. The goal of identifying small molecules that enhance alpha7 integrin expression is two-fold: firstly, such molecules would help us gain insight into the complex transcriptional control of alpha7 integrin. It is known that alpha7 integrin expression is tightly controlled during various stages of development, disease and in response to external stimuli. The second goal of the project is to translate the above finding into a therapeutic strategy for muscular dystrophy. […] Thus this project aims to discover small molecule probes that would not only help in gaining a better understanding of the complex regulatory mechanism of alpha7 integrin expression, but also lead to development of pharmacological agents to fight muscular dystrophy. NIH Chemical Genomics Center [NCGC] NIH Molecular Libraries Probe Centers Network [MLPCN] MLPCN Grant: NS058429 Assay Submitter (PI): Dean Burkin, University of Nevada School of Medicine
A total of 250 alpha7betagal+/- myoblasts at passage 13 were dispensed using a mulitdrop from Thermo into black low base tissue culture treated microclear aurora plates in 6 ul media containing DMEM without phenol, 5% FBS, 1x GluMax and 1x Penicillin/Streptomycin. The plates were incubated 16-24 hr at 37C, 5% CO2, 95% humidity covered with low evaporation stainless steel lids from Kalypsys. Compounds were then dispensed using a Kalypsys pintool to deliver 23 nl/well compounds in DMSO (diluted into 6 uL resulting in a 1:260 dilution of compound). The control compound used was the cdk2 inhibitor SU9516 from Tocirs (found in the initial LOPAC screen). The plates were incubated for 48 hours at 37C, 5% CO2, 95% humidity using the same stainless steel lids. After incubation with compound, 5 ul of the media was aspirated using the Kalypsys washer/dispenser and 3 ul of the Mammalian Protein Extraction Reagent (MPER) lysis buffer (Thermo Fisher) was added. The plates were spun at 2000 rpms to remove bubbles and an initial capture was acquired on the Viewlux (Perkin Elmer) with exciation at 480 nm and emission at 540 nm for 25 seconds to omit any auto fluorescent compounds. The plates were then incubated for 10 minutes at room temperature. After incubation, 3 ul of 125 uM Fluorescein di-galactoside (FDG) (Marker Gene Technologies) diluted in PBS with 2 mM MgCl2 and 0.2% betamercaptoethanol (BME) was added, the plates were spun at 2000 rpms and incubated for 30 minutes at room temperature. The plates were again read on the Viewlux with exciation at 480 nm and emission at 540 nm for 25 seconds.
Potency is the fitted concentration of half-maximal effect.

Potency, inactive:
Cc1nn(Cc2c(F)c(F)c(F)c(F)c2F)c(C)c1NC(=O)c1ccc(COc2ccc(Cl)cc2Cl)o1
CCCCCc1ccc(-c2ccc(/C=C/C(=O)O)cc2)nc1
O=[N+]([O-])c1ccc(N/N=C/C=C/c2ccco2)cc1
Cc1ccc(C(=O)Nc2c(C)cc(-c3ccc(Cl)cc3)oc2=O)cc1
CCOC(=O)c1sc2nc(CC(=O)OC)nc(N3CCN(c4ccc(OC)cc4)CC3)c2c1C
Cc1c(C(=O)OC(C)C(C)C[N+](C)(C)C)oc2ccccc12 (stereo unspecified)
Cc1nsc2nc3c(F)c(F)c(F)c(F)c3cc12
CC1=C(C(=O)Nc2ccc(C(=O)N3CCN(c4cccc(Cl)c4)CC3)cc2)SCCO1
Cc1ccc(NC(=O)CCCCCC2NC(=O)NC2C)cc1 (stereo unspecified)
CC(=O)N1c2ccc(S(=O)(=O)N3CCC(C(=O)NC4CCC(C)CC4)CC3)cc2CC1C (stereo unspecified)
C[C@@H]1Cn2cnc(C(=O)NCC(=O)OC(C)(C)C)c2C(=O)N1
Cc1[nH]c(C)c(S(=O)(=O)Nc2ccc(OC(F)(F)F)cc2)c1C(=O)N1CCCCC1
Cc1c(C(=O)c2ccc(F)cc2)c2ccccn2c1CCc1ccccn1
COc1ccc(C)cc1NC(=O)Nc1ccc(C(=O)N2CCCC2)cc1
CCCOc1ccc(CC(=O)NCCc2ccccc2)cc1OC
CCC(C)NC(=O)C1CCN(CCCc2ccccc2)CC1 (stereo unspecified)
Cc1ccc(S(=O)(=O)Oc2ccccc2/C=N/NC(N)=S)cc1
O=S1(=O)CCOC[C@H](c2ccccc2)N1Cc1ccccc1
Cc1ccc(Cl)cc1N1CCN(C(=O)CNC(=O)c2ccc(Br)o2)CC1

Sorted by number of heavy atoms (rising): part of the list above.
Potency, inactive:
Cc1nsc2nc3c(F)c(F)c(F)c(F)c3cc12
Cc1c(C(=O)OC(C)C(C)C[N+](C)(C)C)oc2ccccc12 (stereo unspecified)
COc1ccc(C)cc1NC(=O)Nc1ccc(C(=O)N2CCCC2)cc1
Cc1[nH]c(C)c(S(=O)(=O)Nc2ccc(OC(F)(F)F)cc2)c1C(=O)N1CCCCC1
CC(=O)N1c2ccc(S(=O)(=O)N3CCC(C(=O)NC4CCC(C)CC4)CC3)cc2CC1C (stereo unspecified)
CCOC(=O)c1sc2nc(CC(=O)OC)nc(N3CCN(c4ccc(OC)cc4)CC3)c2c1C
Cc1nn(Cc2c(F)c(F)c(F)c(F)c2F)c(C)c1NC(=O)c1ccc(COc2ccc(Cl)cc2Cl)o1

Next part:

Potency, inconclusive:
O=C(CN1C(=O)C2C3C=CC(C3)C2C1=O)OCC(=O)c1ccc(Br)cc1 (stereo unspecified) 2.51 µM [activator, single point]
CN1CCN(CCNC(=O)c2cn(Cc3ccccc3F)nn2)CC1 2.51 µM [activator, partial curve, poor fit]
COC(=O)c1c(C(=O)OC)c(-c2ccc(C(C)(C)C)cc2)n2c1CS(=O)C2 (stereo unspecified) 5.01 µM [activator, single point]
Cc1ccn2cc(C(=O)Nc3ccc4c(c3)OCCO4)nc2c1 11.2 µM [activator, partial curve, poor fit]
COc1ccccc1CNC(=O)c1cc(C(C)=O)c[nH]1 28.2 µM [activator, single point]
S=C(NCc1ccccc1)N/N=C/c1cccs1 2.24 µM [activator, full curve, poor fit]
O=C(CN1CCCCCC1)NC(c1ccccc1)c1ccccc1 0.501 µM [activator, full curve, poor fit]
C/C(=N/NC(=O)c1ccoc1C)c1ccc(N2CCOCC2)cc1 5.01 µM [activator, single point]
COc1ccc(OC)c(S(=O)(=O)NC(C)c2cnn(-c3ccccn3)c2C)c1 (stereo unspecified) 3.98 µM [activator, single point]
Cc1ccc(S(=O)(=O)Nc2ccc(NC(=O)c3ccc(F)cc3)cc2)cc1 22.4 µM [activator, single point]
Cn1c(/C=C/c2ccccc2)nc2ccccc2c1=O 35.5 µM [activator, partial curve, poor fit]
NC(=O)c1ccc(C(=O)N/N=C/c2cccc(Oc3ccccc3)c2)cc1 3.16 µM [activator, single point]
O=[N+]([O-])c1ccc(S(=O)(=O)Nc2ncccn2)cc1 3.16 µM [activator, partial curve, poor fit]
CCn1c(=O)c2ccccc2n(CC(=O)NC2CCCCC2)c1=O 3.16 µM [activator, partial curve, poor fit]
CN(C)C(=O)c1coc2nc3ccccc3nc12 22.4 µM [activator, single point]
c1ccc(-c2cn3c4c(sc3n2)CCCC4)cc1 1.12 µM [activator, full curve]
Cc1ccc2cc(C#N)c(SCC(=O)NCC3CCCO3)nc2c1 (stereo unspecified) 2.82 µM [activator, partial curve, poor fit]
COc1cc(C(=O)N/C(=C\c2cn(C)c3ccccc23)C(=O)NCCCO)cc(OC)c1OC 4.47 µM [activator, single point]
CC(C)NC(=O)COC(=O)c1ccccc1C(=O)c1ccccc1 2 µM [activator, single point]
CC(C)c1ccc(NC(=O)CSc2nc(=O)n(CCCN3CCOCC3)c3c2CCC3)cc1 4.47 µM [activator, full curve]
COc1cc2c(cc1NC(=O)COC(=O)c1ccc(C(C)(C)C)cc1)oc1ccccc12 2.24 µM [activator, single point]
O=S(=O)(Nc1ccc(Nc2ccccc2)cc1)c1ccc(F)cc1 3.55 µM [activator, single point]
Cc1ccc(C)c(S(=O)(=O)Nc2ccc3cn[nH]c3c2)c1 2 µM [activator, single point]
O=C(COc1ccc(F)cc1Cl)Nc1cc(S(=O)(=O)N2CCOCC2)ccc1N1CCCCC1 1.58 µM [activator, partial curve, poor fit]
COc1cc(C(C(=O)NC2CCCCC2)N(CCN2CCOCC2)C(=O)C2COc3ccccc3O2)cc(OC)c1OC (stereo unspecified) 5.01 µM [activator, single point]
COc1ccc(CCC(=O)NNC(=O)Cn2nc(C)cc2C)cc1 5.01 µM [activator, single point]
COc1cccc(NC(=O)C2CCN(C(=O)[C@@H]3Cc4ccccc4CN3C(=O)OC(C)(C)C)CC2)c1 5.01 µM [activator, single point]
O=C(COc1ccc(Cl)cc1)NCc1nnc(SCC(=O)NCC2CCCO2)o1 (stereo unspecified) 11.2 µM [activator, partial curve, poor fit]
COc1ccccc1-c1c(C(F)(F)F)oc2cc(OC(=O)c3ccc([N+](=O)[O-])cc3)ccc2c1=O 11.2 µM [activator, partial curve, poor fit]
Cc1cccc(Nc2ccc([N+](=O)[O-])cn2)c1 2.24 µM [activator, single point]
CCC(=O)Nc1ccc(OCc2nnc3c4ccccc4c(C)nn23)cc1 2.51 µM [activator, single point]
COc1ccccc1C(=O)NNC(=O)CCN1C(=O)/C(=C\c2ccccc2)SC1=S 28.2 µM [activator, partial curve, poor fit]
CC(=O)c1cccc(N(C(=O)c2ccco2)C(C(=O)NC2CCCCC2)c2ccc(C)o2)c1 (stereo unspecified) 12.6 µM [activator, single point]
O=C(Cn1cncn1)NCc1cc(F)ccc1F 20 µM [activator, single point]
O=[N+]([O-])c1cc(S(=O)(=O)Nc2cccc(Cl)c2)ccc1N/N=C/c1ccc(N2CCOCC2)cc1 3.98 µM [activator, single point]
CC(=O)Nc1ccc(S(=O)(=O)NCc2ccc(C(=O)NCCCN3CCC(C)CC3)cc2)cc1 28.2 µM [activator, single point]
Cc1ccc2nc(NC(=O)c3ccc(N4C(=O)CCC4=O)cc3)sc2c1 3.16 µM [activator, single point]
COc1ccc(CCNCC(O)COc2cccc(C(C)=O)c2)cc1OC (stereo unspecified) 11.2 µM [activator, single point]
O=C(CCCc1ccccc1)N=C1SC2CS(=O)(=O)CC2N1c1ccccc1F (stereo unspecified) 28.2 µM [activator, single point]
CCn1c(COc2cccc(C)c2)nnc1SCC(=O)Nc1cccc(C(=O)O)c1 14.1 µM [activator, single point]
CCCCN1CC(=O)N2Cc3[nH]c4ccccc4c3C[C@H]2C1=O 10 µM [activator, partial curve, poor fit]
CCc1ccc(-n2c(=S)sc3c(=O)n(-c4ccccc4C)c(SCC(=O)O)nc32)cc1 2.82 µM [activator, partial curve, poor fit]
CCOC(=O)[C@H]1[C@H]2COc3cc(OC)ccc3[C@@H]2N2C(=O)c3cc(C)ccc3NC(=O)[C@@]12C 2.82 µM [activator, partial curve, poor fit]
COCc1nn2c(N)c(C#N)cnc2c1-c1ccccc1 20 µM [activator, partial curve, poor fit]
COc1ccc(CNN2CCCCC2C(=O)Nc2ccc(OC)c(OCC(C)C)c2)cc1OC (stereo unspecified) 5.01 µM [activator, single point]
C=C(C)CSc1nc2sc3c(c2c(=O)n1-c1ccc(C)cc1)CCN(C)C3 0.447 µM [activator, partial curve, poor fit]

activation, inconclusive:
CCOc1cccc(CNCCSc2nnnn2C)c1 17.5% [activator]
